# From patent publication US20020137113A1
# By UniProt entry, the sequences of proteins in these tests, tags left out. Where a name states a change or a piece, a line headed by the entry shows the natural chain unless it says otherwise.
# UniProt Q16620: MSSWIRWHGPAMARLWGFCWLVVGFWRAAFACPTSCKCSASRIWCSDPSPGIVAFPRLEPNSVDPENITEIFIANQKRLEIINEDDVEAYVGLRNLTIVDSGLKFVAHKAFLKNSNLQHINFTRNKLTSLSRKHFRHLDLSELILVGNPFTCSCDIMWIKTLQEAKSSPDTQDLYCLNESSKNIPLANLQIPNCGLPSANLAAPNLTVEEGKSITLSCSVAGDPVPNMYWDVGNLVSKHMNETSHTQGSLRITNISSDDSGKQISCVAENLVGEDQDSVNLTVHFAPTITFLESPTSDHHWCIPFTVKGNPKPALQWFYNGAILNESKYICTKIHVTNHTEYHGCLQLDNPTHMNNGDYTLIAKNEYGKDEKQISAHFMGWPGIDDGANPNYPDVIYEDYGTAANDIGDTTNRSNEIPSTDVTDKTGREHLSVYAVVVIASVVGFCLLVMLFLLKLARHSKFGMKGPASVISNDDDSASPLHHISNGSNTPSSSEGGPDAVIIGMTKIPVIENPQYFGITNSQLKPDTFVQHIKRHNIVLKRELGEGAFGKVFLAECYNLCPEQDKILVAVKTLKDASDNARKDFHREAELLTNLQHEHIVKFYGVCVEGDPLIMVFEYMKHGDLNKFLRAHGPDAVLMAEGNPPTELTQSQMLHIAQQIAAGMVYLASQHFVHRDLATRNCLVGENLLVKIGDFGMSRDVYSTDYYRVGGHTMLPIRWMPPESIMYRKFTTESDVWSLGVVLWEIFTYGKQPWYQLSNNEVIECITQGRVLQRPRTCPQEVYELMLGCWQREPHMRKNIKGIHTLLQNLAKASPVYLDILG
# These are yes or no findings as the source states them, for the method shown. Some results given as binding are weak or reduced against the parent protein; the word gives no strength.
# B1: neurotrophin 5 (NT5) (ligand, UniProt P34130 81-210, looked up)
# chain: GVSETAPASRRGELAVCDAVSGWVTDRRTAVDLRGREVEVLGEVPAAGGSPLRQYFFETRCKADNAEEGGPGAGGGGCRGVDRRHWVSECKAKQSYVRALTADAQGRVGWRWIRIDTACVCTLLSRTGRA
# Molecular target: gD.trk B (trk B receptor with the gD flag polypeptide fused to its amino terminus), in dp12.CHO cells (human) (UniProt Q16620)
# Test: neurotrophin binding screen of gD.trk CHO clones
binder,measurement,value
B1,binding,binds
